These are yes or no findings as the source states them, for the method shown. Binding seen in cells or lysates may run through a third protein. Some entries that bind do so weakly or less than the wild type.
What was measured:
[1] = target: cellular prion protein PrP^c (human (endogenous in Caco-2/TC7)) (UniProt P04156); assay: co-IP
[2] = target: Desmoglein 2 (human (endogenous in Caco-2/TC7)) (UniProt Q14126); assay: co-IP

Substance | binding [1] | binding [2]
annexin A2 (from UniProt P07355 1-339) | binds | 
cellular prion protein PrP^c (from UniProt P04156 23-230) |  | binds

From paper PMC2500194
